# Laboratory results as given in PubChem BioAssay AID652054 (National Center for Advancing Translational Sciences (NCATS), 2013).
# The chains behind the UniProt entries cited, without tags or fusion partners.
# UniProt P35462, whole entry, looked up: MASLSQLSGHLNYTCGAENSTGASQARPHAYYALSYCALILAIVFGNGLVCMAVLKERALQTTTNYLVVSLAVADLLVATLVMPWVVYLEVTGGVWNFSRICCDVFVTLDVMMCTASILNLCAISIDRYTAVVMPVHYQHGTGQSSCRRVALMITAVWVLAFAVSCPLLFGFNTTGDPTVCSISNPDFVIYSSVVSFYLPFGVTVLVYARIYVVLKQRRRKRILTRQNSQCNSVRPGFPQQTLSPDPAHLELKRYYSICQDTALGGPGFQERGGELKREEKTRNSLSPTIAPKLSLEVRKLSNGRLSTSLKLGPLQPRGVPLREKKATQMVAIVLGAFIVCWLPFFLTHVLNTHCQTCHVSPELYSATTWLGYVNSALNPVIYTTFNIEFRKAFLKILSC
# Screen size: about 360,000 compounds; about 9,100 (2.5%) were called active. Inconclusive results, whose numbers are uncertain, are shown with a selection of clear calls. No stated cut-off is given here; in the data, active means max response below about -50%; inconclusive means no clear call, values can overlap the other calls; inactive means above that.
# Target: D(3) dopamine receptor (Homo sapiens) (UniProt P35462)
# Assay: qHTS of D3 Dopamine Receptor Antagonist: qHTS
# Details: D3R cells, DiscoveRx beta-arrestin luminescence, antagonist mode; stronger effect = lower value
# In short: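 Cells plated overnight at 1500 cells/well, then exposed to library compounds with dopamine controls for 90 minutes at 37 degrees C. DiscoveRx reagent added for 30–60 minutes at room temperature; luminescence read, quantitative HTS format.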
# On the % scale 0 is the no-effect control and ±100 the full control effect.
row,Compound,"max response, negative = inhibition"
1,Clc1ccc(SCc2cn3cccnc3n2)cc1,inactive: 8.54%
2,CCN(CC)C(=O)CSc1nsc(SCC(=O)N(CC)CC)c1C#N,active: -55%
3,CN(C)CCNc1ncnc2c1ncn2[C@H]1CN(CCc2ccccc2)C[C@@H](CO)O1,inactive: -12.8%
4,O=C(/C=C/c1ccccc1)NC(=S)NNC(=O)c1cccnc1,inconclusive: -45.6%
5,CC(=O)c1ccc(NC(=O)c2ccc3c(=O)n4c(nc3c2)CCCCC4)cc1,inactive: -10.3%
6,CCOC(=O)C1CCCN(C(=O)c2ccc(-c3ccc([N+](=O)[O-])cc3)o2)C1 (stereo not drawn),inactive: -2.73%
7,CCc1ccccc1NC(=S)NCC1CCN(c2ccc(OC)cc2)C1 (stereo not drawn),inconclusive: -46.8%
8,CCc1ccc(CN2CCCC(C(=O)Nc3ccccc3-c3ccc(OC)cc3)C2)o1 (stereo not drawn),inactive: -26.8%
9,O=C(c1ccc(CN2CCOCC2)cc1)N1CCC(Cc2ccccc2)CC1,inconclusive: -34.2%
10,O=[N+]([O-])c1ccc(N2CCOCC2)cc1NCc1ccccc1,inconclusive: -34.1%
11,O=c1[nH]c2cc3c(cc2cc1CN(Cc1ccco1)C(=S)NCCCN1CCOCC1)OCCO3,inconclusive: -45.1%
12,O=C(NCc1ccc2c(c1)CCO2)Nc1cccc(C(F)(F)F)c1,inconclusive: -37.8%
13,O=c1cccccc1NCc1ccccc1,inconclusive: -34.5%
14,Cn1c(N)c(C(=O)CSc2nnc(N)s2)c(=O)n(C)c1=O,inconclusive: -32%
15,NC(=O)c1ncn([C@@H]2O[C@H](CNCc3cccn3-c3ccncc3)[C@@H](O)[C@H]2O)n1,inactive: -4.59%
16,COc1ccccc1N1CCN(CCC(=O)Nc2ccc(F)cc2)CC1,active: -98.3%
17,NC(N)=NS(=O)(=O)c1ccc(NC(=S)NC(=O)c2ccncc2)cc1,inconclusive: -43.2%
18,Cc1cccc(NC(=O)CSc2nc(-c3ccccc3)c(C#N)c(=O)[nH]2)c1C,active: -63.1%
19,O=C(NC(c1ccc2c(c1)OCO2)c1ccccn1)C1CCN(CCOc2ccc(Cl)cc2Cl)CC1 (stereo not drawn),active: -74.8%
20,CC(CN1CCN(Cc2ccccc2)CC1)c1ccccc1 (stereo not drawn),inactive: 0%
21,O=C(Nc1ccc(NC(=O)c2cccs2)c(Cl)c1)c1cccs1,inactive: 4.13%
22,CC1(C)CC(NC(=O)c2cc(S(=O)(=O)N3CCOCC3)c(Cl)cc2Cl)CC(C)(C)N1,inconclusive: -38.4%

row,Compound,"max response, negative = inhibition"
1,Cc1ccc(-c2cnc3cc(C)nn3c2)cc1,inactive: 2.73%
2,Cc1cc(C(=O)CN2C(=O)C(=O)N(Cc3ccccc3)C2=O)c(C)n1-c1ccccc1F,inconclusive: -35.1%
3,CCCSc1nnc(NC(=O)c2sc3nc(-c4cccs4)ccc3c2N)s1,inactive: 27.3%
4,CCOC(=O)/C=c1/s/c(=C/c2ccc3cc(OC)ccc3c2)c(=O)n1CC(=O)NCC1CCCO1 (stereo not drawn),inactive: 0.363%
5,Cc1nn(C(C)(C)C)c(OC(=O)c2ccc3c(c2)OCO3)c1S(=O)(=O)c1ccccc1,inconclusive: -45.7%
6,Cc1cccc(CS(=O)(=O)c2nnc([C@H](Cc3ccccc3)NC(=O)OC(C)(C)C)o2)c1,active: -76.5%
7,COc1ccc(N(CC(=O)NN=C2CCCCCCC2)S(=O)(=O)c2ccccc2)cc1Cl,inconclusive: -33.5%
8,O=C(COc1ccccc1)Nc1nc2c(s1)CCCC2,active: -77.4%
9,CC(=O)c1c(C(C)=O)c(C)n(-c2ccc(N)c(C)c2)c1C,inconclusive: -30.9%
10,COc1ccc(NS(=O)(=O)c2cccc(C(=O)NCc3ccccc3CN3CCCC3)c2)cc1,inconclusive: -35.4%
11,CCNC(=O)C1(C)CCCN(Cc2ccccc2-c2ccccc2)C1 (stereo not drawn),inconclusive: -44.6%
12,CSc1c(C#N)c(N)nc2sc(C(=O)c3ccccc3)c(N)c12,inactive: -5.21%
13,CCOC(=O)c1cc(C#N)c(NCc2ccccc2)nc1C,inactive: -17.7%
14,O=C(Nc1cccnc1)Nc1cccc(F)c1,inconclusive: -41.4%
15,CN1/C(=C\C(=O)Nc2cccc(Cl)c2)C(C)(C)c2ccccc21,inactive: 5.76%
16,OCC1(Cc2ccccc2)CCN(C2CCN(c3ccccc3F)CC2)CC1,inconclusive: -45.6%
17,CCNc1ccc(Br)cc(C(=O)/C=C/c2ccc(Cl)cc2)c1=O,inconclusive: -38%
18,C=C(C)CCC(C)N1CCC(n2nccc2NC(=O)CCCc2ccccc2)CC1 (stereo not drawn),active: -59.7%
19,O=C(Nc1nc2c(s1)CCCC2)c1cc(-c2ccncc2)nc2ccccc12,inconclusive: -31.1%
20,Cn1c(=O)[nH]c(=O)c2c1nc(SCCN1CCOCC1)n2Cc1ccccc1,active: -69.9%
21,COc1ccc(C(=O)Oc2ccc3oc(=O)sc3c2)cc1,active: -51.9%
22,Cc1cc(C(F)(F)F)c(C#N)c(N2CCOCC2)n1,inactive: 9.02%

row,Compound,"max response, negative = inhibition"
1,CCN(CC)Cc1cc(Oc2ccc(O)c(CN(CC)CC)c2)ccc1O,inconclusive: -32.5%
2,COC(=O)c1cn(CC(=O)N2CCCCCC2)c2ccccc12,inactive: -9.09%
3,CCOC(=O)N1CCC2(CC1)C(C(=O)C13CC4CC(CC(C4)C1)C3)C2(C#N)C#N (stereo not drawn),inconclusive: -33.4%
4,O=C(Cn1nc(-c2ccccc2)ccc1=O)NCCN1CCN(c2cccc(Cl)c2)CC1,active: -60.2%
5,O=C1CC(C(=O)Nc2ccc(Br)cc2)S/C(=N\N=C\c2ccco2)N1 (stereo not drawn),inactive: -13.5%
6,COc1cc(C(c2c(C)[nH][nH]c2=O)c2c(C)[nH][nH]c2=O)ccc1OCc1ccc([N+](=O)[O-])cc1,inconclusive: -31.2%
7,Cc1cc(O)c(C(C)C)cc1N=Cc1ccc(N(C)C)cc1,inconclusive: -32.6%
8,[2H]c1c([2H])c([2H])c(-c2nc(N3CCCCCC3)sc2C(=O)c2ccccc2)c([2H])c1[2H],inactive: 13.4%
9,COc1ccccc1-c1ncn(Cc2cccc(-c3ccccc3)c2)c1-c1ccco1,inconclusive: -44.9%
10,O=C1C(SCCO)=C(SCCO)C(=O)c2ccccc21,active: -136%
11,O=C(O)c1ccc(/C=N/NC(=O)c2cc3c(ccc4ccccc43)o2)cc1,inactive: 16.6%
12,C=CCc1ccccc1OCC(O)CN1CCN(Cc2ccc3c(c2)OCO3)CC1 (stereo not drawn),inconclusive: -43.6%
13,O=C(COC(=O)c1cc(C(F)(F)F)cc(C(F)(F)F)c1)NCc1ccc(Cl)cc1,inconclusive: -48.7%
14,CC1CCN(C(=O)CN(C)S(=O)(=O)c2cccc3nsnc23)CC1,inactive: 8.09%
15,CN(C)CCNC(=O)c1c(CSc2ccc(Cl)cc2)noc1C(=O)NCc1ccccc1,inconclusive: -37.2%
16,O=C(/C=C/c1ccccc1)c1c[nH]c2ccccc12,inconclusive: -30.1%
17,CN1CCN(C(=O)/C(=C/c2ccccc2)c2ccccc2)CC1,active: -58.5%
18,C=CCSc1n[nH]c2nc3c(c(=O)n12)C1(CCCC1)Cc1ccccc1-3,inactive: -12%
19,COc1ccc(C(CC(=O)c2ccc(C)cc2)C(C#N)C#N)cc1OC (stereo not drawn),inconclusive: -40%
20,O=C(N(Cc1ccccc1)c1ccccn1)C12CC3CC(CC(C3)C1)C2,inconclusive: -32%
21,Cc1cccc(C2C3=C(Nc4[nH]n(-c5ccccc5)c(=O)c42)c2ccccc2C3=O)c1 (stereo not drawn),inconclusive: -34.2%
22,O=C(N/N=C/c1ccccn1)c1cc(Br)ccc1O,inconclusive: -48.4%

# Structural class: the entries above with bromine.
row,Compound,"max response, negative = inhibition"
17,CCNc1ccc(Br)cc(C(=O)/C=C/c2ccc(Cl)cc2)c1=O,inconclusive: -38%
5,O=C1CC(C(=O)Nc2ccc(Br)cc2)S/C(=N\N=C\c2ccco2)N1 (stereo not drawn),inactive: -13.5%
22,O=C(N/N=C/c1ccccn1)c1cc(Br)ccc1O,inconclusive: -48.4%

# More results follow:

row,Compound,"max response, negative = inhibition"
1,Cc1ccc(S(=O)(=O)SC/C=C/CSS(=O)(=O)c2ccc(C)cc2)cc1,inconclusive: -32.7%
2,CC(C)NCCCCOc1ccc(Br)cc1Cl,active: -70.8%
3,Cc1csc(=O)n1CC(=O)OCc1nnc(-c2ccc(Cl)cc2)o1,inactive: -22.2%
4,CC(=O)Oc1ccc(C(=O)Nc2nccs2)cc1,inconclusive: -39.3%
5,CC(C)OCCCN(C)C1CCN(S(=O)(=O)c2ccc(-c3cc(C(F)(F)F)no3)s2)CC1,active: -84.2%
6,Cc1ccsc1C(=O)C1CCCN(Cc2cn(C)nc2-c2ccccc2)C1 (stereo not drawn),inconclusive: -31.2%
7,O=C1CC(=C(c2ccccc2)c2ccccc2)C(=O)N1CCCCN1CCN(c2cccc(Cl)c2)CC1,active: -51.5%
8,COc1ccc(S(=O)(=O)NC2CCCCC2)cc1C,inconclusive: -35.5%
9,COc1ccc(C2/C=C\CC(OCc3ccccc3)CC(=O)N2Cc2cccc(F)c2)cc1 (stereo not drawn),inconclusive: -37.8%
10,CCN1CCN(CCCNC(=O)c2cc3c(s2)-c2ccccc2OC3)CC1,inconclusive: -31.7%
11,O=S(=O)(Nc1cccnc1)c1ccc(Br)c2ccccc12,inconclusive: -37.6%
12,C=CCn1c(SCc2c(C)noc2C)nc2sc3c(c2c1=O)CCCCC3,inconclusive: -45.6%
13,CCOC(=O)C1(C)/C(=N/Nc2ccccc2Cl)C(=O)C(=O)N1c1ccccc1 (stereo not drawn),inconclusive: -46.8%
14,Cc1ccc(NC(=O)C2CCCO2)c(Br)c1 (stereo not drawn),inactive: -8.54%
15,CC1(C(=O)NS(=O)(=O)c2ccccc2)CCN1C(=O)COc1ccc(Cl)cc1 (stereo not drawn),inactive: -14.1%
16,Cc1ccc(-c2cc(C(F)(F)F)n3ncc(C(=O)N4CCN(C)CC4)c3n2)cc1,inconclusive: -46.7%
17,CCCc1cc(=O)n2[nH]cnc2n1,inconclusive: -38.5%
18,O=C(CSc1nc2ccccc2[nH]1)c1c[nH]c2ccccc12,active: -56.3%
19,CCOC(=O)c1nnn(-c2nonc2N)c1CN1CCc2ccccc2C1,inconclusive: -33.3%
20,CC(=O)N(Cc1ccc(F)cc1)C1=C(NCCc2ccccc2)C(=O)c2ccccc2C1=O,active: -54.3%
21,c1ccc(CSc2nnc(-c3ccccc3)c(-c3ccccc3)n2)cc1,inconclusive: -42%
22,O=C(COc1ccccc1)NC(=S)Nc1cccc(NC(=O)c2ccccc2Cl)c1,inconclusive: -46.1%
